PubChem BioAssay AID1259327 | Drosophila RNAi Screening Center – 2017
Shown is one part, drawn at random, of about 3,100 deposited reagents. In the full data, 378 (12%) are marked active. 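Hits include both directions; z-score sign shows ATP rise or fall; raw luminescence values are not plate-normalised.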 Unmarked entries are inactive. Not stated in the record: the amount of reagent.

Test: 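Data from controls in screens of zinc and manganese toxicity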
Cells: Drosophila S2R+ cells
Reagents: long dsRNA against Drosophila genes
Time to read-out: 5 days (water added on day 4, read one day later)
Conditions: water added as vehicle, no metal, one day before read-out
Measurement: 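Total ATP measured by luciferase light, scaled to plate mean, duplicates averaged, then z-scored across plates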
Scale: ATP z-score: higher = more total ATP than typical wells; ATP luminescence: higher = more total ATP
Hit rule: 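Called active when the ATP z-score exceeds 1.5 or falls below -1.5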
Calls: active = hit: ATP up or down; inactive = no clear ATP change

Which result is listed for CarT [DRSC03196]?
ATP z-score, duplicate mean: 0.687; ATP luminescence, replicate 1 (RLU): 4.99e5; ATP luminescence, replicate 2 (RLU): 5.57e5

With CarT [DRSC27070], what does the deposit list?
ATP z-score, duplicate mean: -1.34; ATP luminescence, replicate 1 (RLU): 7.46e5; ATP luminescence, replicate 2 (RLU): 9.52e5

With Or85b [DRSC16765], what does the deposit list?
ATP z-score, duplicate mean: 0.519; ATP luminescence, replicate 1 (RLU): 3.04e5; ATP luminescence, replicate 2 (RLU): 8.64e5

For Or85b [DRSC39611], what does the deposit list?
ATP z-score, duplicate mean: -0.122; ATP luminescence, replicate 1 (RLU): 4.61e5; ATP luminescence, replicate 2 (RLU): 4.52e5

Which result is listed for Tsp29Fa [DRSC03232]?
ATP z-score, duplicate mean: 1.45; ATP luminescence, replicate 1 (RLU): 8.61e5; ATP luminescence, replicate 2 (RLU): 8.99e5

How did the screen score Tsp29Fa [DRSC28522]?
ATP z-score, duplicate mean: 0.687; ATP luminescence, replicate 1 (RLU): 9.47e5; ATP luminescence, replicate 2 (RLU): 8.67e5

Which result is listed for ppk20 [DRSC16260]?
ATP z-score, duplicate mean: 1.12; ATP luminescence, replicate 1 (RLU): 7.22e5; ATP luminescence, replicate 2 (RLU): 6.87e5

With ppk20 [DRSC28819], how do the results read?
ATP z-score, duplicate mean: -0.192; ATP luminescence, replicate 1 (RLU): 8.32e5; ATP luminescence, replicate 2 (RLU): 7.70e5

How did the screen score ppk15 [DRSC14733]?
ATP z-score, duplicate mean: -0.607; ATP luminescence, replicate 1 (RLU): 5.41e5; ATP luminescence, replicate 2 (RLU): 6.12e5

What is on record for ppk15 [DRSC27947]?
ATP z-score, duplicate mean: 2.69 (active); ATP luminescence, replicate 1 (RLU): 6.73e5; ATP luminescence, replicate 2 (RLU): 8.13e5

With MsR1 [DRSC08615], what does the deposit list?
ATP z-score, duplicate mean: 1.01; ATP luminescence, replicate 1 (RLU): 7.59e5; ATP luminescence, replicate 2 (RLU): 6.62e5

With MsR1 [DRSC26467], how do the results read?
ATP z-score, duplicate mean: 1.34; ATP luminescence, replicate 1 (RLU): 9.62e5; ATP luminescence, replicate 2 (RLU): 9.61e5

How did the screen score Ir7c [DRSC18007]?
ATP z-score, duplicate mean: 2.01 (active); ATP luminescence, replicate 1 (RLU): 9.55e5; ATP luminescence, replicate 2 (RLU): 8.53e5

With Ir7c [DRSC39710], what was measured?
ATP z-score, duplicate mean: 0.452; ATP luminescence, replicate 1 (RLU): 4.70e5; ATP luminescence, replicate 2 (RLU): 5.23e5

What did the screen give for CG13426 [DRSC06388]?
ATP z-score, duplicate mean: -0.909; ATP luminescence, replicate 1 (RLU): 5.15e5; ATP luminescence, replicate 2 (RLU): 5.60e5

With JhI-21 [DRSC02161], what was measured?
ATP z-score, duplicate mean: 0.386; ATP luminescence, replicate 1 (RLU): 4.38e5; ATP luminescence, replicate 2 (RLU): 5.79e5

Which result is listed for JhI-21 [DRSC29181]?
ATP z-score, duplicate mean: 1.08; ATP luminescence, replicate 1 (RLU): 9.81e5; ATP luminescence, replicate 2 (RLU): 9.26e5

With CG8916 [DRSC20120], how do the results read?
ATP z-score, duplicate mean: 0.455; ATP luminescence, replicate 1 (RLU): 8.08e5; ATP luminescence, replicate 2 (RLU): 8.29e5

What is on record for CG8916 [DRSC39685]?
ATP z-score, duplicate mean: -0.245; ATP luminescence, replicate 1 (RLU): 4.46e5; ATP luminescence, replicate 2 (RLU): 4.51e5

For CG6231 [DRSC15997], what does the deposit list?
ATP z-score, duplicate mean: -0.356; ATP luminescence, replicate 1 (RLU): 2.83e5; ATP luminescence, replicate 2 (RLU): 7.23e5

With GC2 [DRSC14476], what was measured?
ATP z-score, duplicate mean: -0.0284; ATP luminescence, replicate 1 (RLU): 2.62e5; ATP luminescence, replicate 2 (RLU): 8.50e5

For GC2 [DRSC27370], how do the results read?
ATP z-score, duplicate mean: 0.359; ATP luminescence, replicate 1 (RLU): 8.68e5; ATP luminescence, replicate 2 (RLU): 9.33e5

With m [DRSC20181], what does the deposit list?
ATP z-score, duplicate mean: -1.57 (active); ATP luminescence, replicate 1 (RLU): 4.15e5; ATP luminescence, replicate 2 (RLU): 6.91e5

Which result is listed for m [DRSC29636]?
ATP z-score, duplicate mean: 0.427; ATP luminescence, replicate 1 (RLU): 7.72e5; ATP luminescence, replicate 2 (RLU): 9.67e5

Ordered by “ATP luminescence, replicate 2 (RLU)” (ascending): 2 of the entries above
CG8916 [DRSC39685] — ATP z-score, duplicate mean: -0.245; ATP luminescence, replicate 1 (RLU): 4.46e5; ATP luminescence, replicate 2 (RLU): 4.51e5
CG8916 [DRSC20120] — ATP z-score, duplicate mean: 0.455; ATP luminescence, replicate 1 (RLU): 8.08e5; ATP luminescence, replicate 2 (RLU): 8.29e5
